In test [1] the target is Rspo2-myc alkaline phosphatase (AP) (UniProt Q6UXX9). Kind of test: co-IP; HEK293 cells transfected with human LGR5 and Rspo2-mycAP or MuSKect-mycAP, no LRP4 co-expressed, 48 h; lysate (50 mM HEPES pH 7.0, 150 mM NaCl, 1% Triton X-100) immunoprecipitated with anti-myc antibody on protein G Sepharose; Western blot for Lgr5 (Fig. 3B). (In general: Immunoblotting shows a protein as a band on a membrane.)

Chains of the proteins cited; added tags and fusions are not shown. Residues count along the entry.
UniProt Q6UXX9, residues 22-243: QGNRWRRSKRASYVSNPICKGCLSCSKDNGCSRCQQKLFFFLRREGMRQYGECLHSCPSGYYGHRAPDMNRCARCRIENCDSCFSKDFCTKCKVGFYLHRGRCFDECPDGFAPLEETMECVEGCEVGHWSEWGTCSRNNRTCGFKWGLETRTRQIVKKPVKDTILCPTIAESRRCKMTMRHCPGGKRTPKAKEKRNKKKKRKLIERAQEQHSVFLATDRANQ
UniProt O75096, residues 21-1905: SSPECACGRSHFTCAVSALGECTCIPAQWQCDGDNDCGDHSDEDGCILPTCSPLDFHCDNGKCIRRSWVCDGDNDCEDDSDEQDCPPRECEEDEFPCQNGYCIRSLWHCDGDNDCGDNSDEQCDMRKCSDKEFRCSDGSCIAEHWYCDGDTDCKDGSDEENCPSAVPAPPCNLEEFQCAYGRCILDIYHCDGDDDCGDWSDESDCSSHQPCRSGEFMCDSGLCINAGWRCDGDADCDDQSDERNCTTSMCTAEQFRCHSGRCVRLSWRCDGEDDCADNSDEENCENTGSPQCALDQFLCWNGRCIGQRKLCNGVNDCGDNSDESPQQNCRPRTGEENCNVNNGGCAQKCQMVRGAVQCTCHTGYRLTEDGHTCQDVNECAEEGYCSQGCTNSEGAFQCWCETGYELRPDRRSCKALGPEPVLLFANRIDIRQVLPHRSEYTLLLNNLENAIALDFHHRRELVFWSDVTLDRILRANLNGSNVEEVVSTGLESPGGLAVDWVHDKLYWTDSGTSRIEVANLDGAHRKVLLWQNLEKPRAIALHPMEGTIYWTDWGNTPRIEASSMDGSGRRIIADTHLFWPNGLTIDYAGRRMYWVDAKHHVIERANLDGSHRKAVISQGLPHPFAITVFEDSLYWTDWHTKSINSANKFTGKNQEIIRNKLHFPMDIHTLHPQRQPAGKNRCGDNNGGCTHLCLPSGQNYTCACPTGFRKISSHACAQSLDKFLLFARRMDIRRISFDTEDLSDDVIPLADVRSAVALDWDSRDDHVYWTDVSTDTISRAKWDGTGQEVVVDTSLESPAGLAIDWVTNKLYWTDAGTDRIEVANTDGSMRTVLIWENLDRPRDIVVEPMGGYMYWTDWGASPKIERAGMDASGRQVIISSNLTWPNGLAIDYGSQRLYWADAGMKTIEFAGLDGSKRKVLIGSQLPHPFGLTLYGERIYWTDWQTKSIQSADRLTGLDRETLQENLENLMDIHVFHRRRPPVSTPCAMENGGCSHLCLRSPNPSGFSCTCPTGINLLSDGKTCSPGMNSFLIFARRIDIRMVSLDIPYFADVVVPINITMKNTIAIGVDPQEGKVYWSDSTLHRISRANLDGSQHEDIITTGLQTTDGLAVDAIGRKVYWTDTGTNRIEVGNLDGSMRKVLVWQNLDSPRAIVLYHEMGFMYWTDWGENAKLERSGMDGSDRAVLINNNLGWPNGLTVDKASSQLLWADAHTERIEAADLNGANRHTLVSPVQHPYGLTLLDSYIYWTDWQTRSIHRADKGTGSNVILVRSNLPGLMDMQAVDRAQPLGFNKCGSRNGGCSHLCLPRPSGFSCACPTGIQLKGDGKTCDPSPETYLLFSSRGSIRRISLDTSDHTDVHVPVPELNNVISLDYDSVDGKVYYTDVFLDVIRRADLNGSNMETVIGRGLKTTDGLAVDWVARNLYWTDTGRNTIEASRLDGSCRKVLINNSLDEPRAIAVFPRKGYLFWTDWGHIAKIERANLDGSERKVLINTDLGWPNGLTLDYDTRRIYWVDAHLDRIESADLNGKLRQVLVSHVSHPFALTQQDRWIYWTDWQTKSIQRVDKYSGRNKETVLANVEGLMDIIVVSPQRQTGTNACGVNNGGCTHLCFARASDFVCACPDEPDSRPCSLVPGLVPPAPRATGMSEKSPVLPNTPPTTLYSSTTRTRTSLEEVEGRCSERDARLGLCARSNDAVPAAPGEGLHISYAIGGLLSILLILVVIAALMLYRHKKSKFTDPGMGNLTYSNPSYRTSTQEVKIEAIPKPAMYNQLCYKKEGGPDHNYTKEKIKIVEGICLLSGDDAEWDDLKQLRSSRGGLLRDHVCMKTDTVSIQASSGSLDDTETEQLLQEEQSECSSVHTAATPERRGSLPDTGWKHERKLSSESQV

The next test has as its target LRP4-Flag (human) (UniProt O75096). Description: co-IP; HEK293 cells transfected with a combination of LRP4-Flag, human full-length MuSK and human LGR5, 48 h; lysate immunoprecipitated with anti-Flag antibody on protein G Sepharose; Western blot (Fig. 3C).

No constants are given. Whether binding was seen depends on the method and setting. Binding seen in cells or lysates may run through a third protein. Some entries that bind do so weakly or less than the wild type.

Data on one molecule can be found in publication PMC4916433.

B1: Leucine-rich repeat-containing G-protein coupled receptor 5 (pcDNA3.1-human LGR5) (receptor, UniProt O75473 22-907)
chain: GSSPRSGVLLRGCPTHCHCEPDGRMLLRVDCSDLGLSELPSNLSVFTSYLDLSMNNISQLLPNPLPSLRFLEELRLAGNALTYIPKGAFTGLYSLKVLMLQNNQLRHVPTEALQNLRSLQSLRLDANHISYVPPSCFSGLHSLRHLWLDDNALTEIPVQAFRSLSALQAMTLALNKIHHIPDYAFGNLSSLVVLHLHNNRIHSLGKKCFDGLHSLETLDLNYNNLDEFPTAIRTLSNLKELGFHSNNIRSIPEKAFVGNPSLITIHFYDNPIQFVGRSAFQHLPELRTLTLNGASQITEFPDLTGTANLESLTLTGAQISSLPQTVCNQLPNLQVLDLSYNLLEDLPSFSVCQKLQKIDLRHNEIYEIKVDTFQQLLSLRSLNLAWNKIAIIHPNAFSTLPSLIKLDLSSNLLSSFPITGLHGLTHLKLTGNHALQSLISSENFPELKVIEMPYAYQCCAFGVCENAYKISNQWNKGDNSSMDDLHKKDAGMFQAQDERDLEDFLLDFEEDLKALHSVQCSPSPGPFKPCEHLLDGWLIRIGVWTIAVLALTCNALVTSTVFRSPLYISPIKLLIGVIAAVNMLTGVSSAVLAGVDAFTFGSFARHGAWWENGVGCHVIGFLSIFASESSVFLLTLAALERGFSVKYSAKFETKAPFSSLKVIILLCALLALTMAAVPLLGGSKYGASPLCLPLPFGEPSTMGYMVALILLNSLCFLMMTIAYTKLYCNLDKGDLENIWDCSMVKHIALLLFTNCILNCPVAFLSFSSLINLTFISPEVIKFILLVVVPLPACLNPLLYILFNPHFKEDLVSLRKQTYVWTRSKHPSLMSINSDDVEKQSCDSTQALVTFTSSSITYDLPPSSVPSPAYPVTESCHLSSVAFVPCL
Regarding B1, the binding entry (in test [1]; with LRP4-Flag (human)) was “binds” throughout.
